From patent US20230398116A1, “Agent for reversing resistance to anticancer drugs” (Y'S AC CO., LTD., priority 2020, published 2023)
For at least one compound, name, drawing or mass did not settle the structure.

Columns and labels:
E0771 cells = experiment: MTT assay / cell proliferation (confluence) assay, E0771; format: cell-based, mouse; conditions: 48 hours, FIG. 6
Method: (§1) Human and mouse breast cancer cells (1×10^4) were cultured in 10% FCS containing RPMI1640 medium on a 96-well flat bottom plate (Corning, Tewksbury, MA) at 37° C. for 24 hours, and then stimulated with IL-26 for 48 hours in the presence or absence of EGFR-TKI (gefitinib or erlotinib) at various concentrations, a signal inhibitor, and a neutralizing antibody. HUVECs were seeded in a 96-well flat bottom plate at 5×10^3 cells/well in a 2% FBS-containing EGM medium in which growth factors were reduced by half, and cultured at 37° C. for 12 hours. Thereafter, the medium was aspirated, and a recombinant human IL-26 dimer was adjusted to a final concentration of 10 ng/mL in a 2% FBS-containing EGM medium containing no growth factors, and added to the cells. The stimulation was started in the presence or absence of control human IgG and anti-human IL-26 antibodies, and the cells were cultured for 48 hours. Thereafter, a concentration of 20 μl or 1/10 of a 5 mg/ml MTT solution (Tetrazolium monosodium salt, WST-8) was added to each well, and the plate was allowed to stand for 1 hour. The absorbance at 450 nm/595 nm was measured using Microplate Reader (Bio-Rad, Hercules, CA) and data was analyzed with Microplate Manager 6 software (Bio-Rad).
(§2) Human and mouse breast cancer cells (1×10^4) were cultured in RPMI1640 medium containing 10% FCS for 24 hours at 37° C. on a 96-well flat bottom plate (Corning), and then stimulated with IL-26 (30 ng/ml) in the presence or absence of various concentrations of gefitinib and a neutralizing antibody. Cell proliferation was measured as cell confluence using IncuCyte ZOOM (Essen Bioscience, Ann Arbor, MI).

HCC70 cells [1] = experiment: MTT assay / cell proliferation (confluence) assay, HCC70; format: cell-based, human; conditions: 48 hours, FIG. 8
Method: as §1, §2

[2] = tested on: endoplasmic reticulum stress signaling (DDIT3, ATF3, ATF4) in HCC70 cells; experiment: qRT-PCR and immunofluorescence of endoplasmic reticulum stress markers in HCC70 cells; format: cell-based, human; conditions: antibodies 50 μg/ml; for inhibition of the decrease in expression of DDIT3 at the protein level by IL-26 together with gefitinib: HCC70, 24 hours, FIG. 32 lower; for inhibition of the decrease in mRNA expression level of DDIT3 by IL-26 treatment with gefitinib: HCC70, IL-26 30 ng/ml, gefitinib 40 μM, 6 hours, FIG. 32 upper
Method: E0771 and HCC70 cells (1×10^5) were cultured for 24 hours in RPMI1640 medium with 10% FCS on Lab-Tek chamber slides (Thermo Fisher Scientific). The cultured cells were stimulated with Alexa Fluor 488 labeled IL-26 (30 ng/ml) in the presence or absence of recombinant human and mouse EphA3-Ig for 1 hour. HCC70 cells were stimulated with IL-26 (30 ng/ml) in the presence or absence of gefitinib (40 μM), a signal inhibitor, and a neutralizing antibody for 24 hours. Subcutaneous tumor samples obtained from mice were fixed in 4% paraformaldehyde (Thermo Fisher Scientific) and embedded in OCT compound (Tissue-Tek (registered trademark), Sakura Finetek, Japan). Cells and slides were immunostained with each antibody and observed using a Zeiss inverted microscope and Axiovision 2.0 program (Carl Zeiss, Germany). The fluorescence intensity was quantified with Image-J software (NIH). The images were captured using a 100×400× objective.
E0771 cells, HCC70 cells, and MDA-MB-468 cells were cultured in RPMI1640 medium containing 10% FCS on a 6-well plate (Corning), and then stimulated with IL-26 (30 ng/ml) in the presence or absence of gefitinib for 3, 6, or 12 hours. The cells were harvested and total RNA was extracted. cDNA was synthesized using PrimeScript II first-strand cDNA synthesis kit (TaKaRa Bio, Japan) and oligo (dT) primers. The mRNA levels were measured by 7500 System SDS software (Applied Biosystems, Foster City, CA) and normalized to hypoxanthine phosphoribosyltransferase expression levels.

HCC70 cells [3] = experiment: JC-1 staining (mitochondrial membrane potential) of HCC70 cells; format: cell-based, human; conditions: HCC70, IL-26 and gefitinib, 24 hours, FIG. 33
Method: Mitochondrial stability was evaluated using the mitochondrial membrane potential (ΔΨm) assay kit (Cayman Chemical, Ann Arbor, MI, USA) utilizing JC-1 staining. HCC70 cells (1×10^4 cells) were stimulated with IL-26 (30 ng/ml) in the presence or absence of gefitinib (40 μM), a signal inhibitor, and a neutralizing antibody in 96-well flat bottom plate (Corning) for 24 hours. […] Stained cells were quantified using Image-J software (NIH). Images were captured using a 40× objective.

Row | Structure (SMILES) | proliferation in the absence of gefitinib, signal inhibitor (E0771 cells) | proliferation of cells treated with gefitinib alone, signal inhibitor (E0771 cells) | proliferation in the absence of gefitinib, signal inhibitor (HCC70 cells [1]) | proliferation of cells treated with gefitinib alone, signal inhibitor (HCC70 cells [1]) | inhibition of the decrease in expression of DDIT3 at the protein level by IL-26 together with gefitinib [2] | inhibition of the decrease in mRNA expression level of DDIT3 by IL-26 treatment with gefitinib [2] | inhibition of the IL-26 effect on reduction in mitochondrial activity (HCC70 cells [3])
1 | COC[C@H]1OC(=O)c2coc3c2[C@@]1(C)C1=C(C3=O)[C@@H]2CCC(=O)[C@@]2(C)C[C@H]1OC(C)=O [AKT inhibitor, wortmannin, reference compound] | partially inhibited the proliferation of E0771 cells | little effect | partially inhibited the proliferation of HCC70 cells | little effect | significantly inhibited | significantly inhibited | significantly inhibited
2 | Oc1c2ccccc2c2c3c(cccc13)N=N2 [JNK inhibitor, SP600125, reference compound] | partially inhibited the proliferation of E0771 cells | little effect | partially inhibited the proliferation of HCC70 cells | little effect | significantly inhibited | significantly inhibited | significantly inhibited
